In PubChem BioAssay AID1487 (National Center for Advancing Translational Sciences (NCATS), 2009):
Some of the results follow. These are further read-outs of the screen, such as a control signal, another cell line or another target. No call is given for them. The list favours compounds with an active or inconclusive main result. The note in brackets gives the kind of curve behind each potency; many fits are weak.

Assay: qHTS Assay for Modulators of Lamin A Splicing
Settings: HeLa LMNA splicing GFP/RFP minigene ratio, 48 h
In short: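 S3 HeLa cells stably expressing lamin A-EGFP splicing minigene plus DsRed2, 600 cells/well, 48 h compound exposure at 37C. Laser-scanning cytometry; analysed as GFP (500-530 nm)/RFP (575-640 nm) total intensity ratio; 0.5% DMSO vehicle.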

[1] = measured here: GFP splicing reporter channel
[2] = measured here: RFP viability control channel

COc1cccc(Cn2c(=O)cnc3cnc(Nc4ccccc4)nc32)c1
AC50 [1]: 14.1 µM [falling, partial curve] | AC50 [2]: 15.8 µM [falling, single point]

Cc1cc(=O)n2[nH]c(C)c(-c3ccccc3)c2n1
AC50 [1]: 14.1 µM [rising, single point] | AC50 [2]: 14.1 µM [rising, single point]

CC(C)OCCCNc1ncnc2c1[nH]c1ccccc12
AC50 [1]: 3.98 µM [rising, full curve] | AC50 [2]: 5.01 µM [rising, full curve]

O=C(NCc1ccccc1)c1ccc(CSc2nc3cccnc3n2Cc2ccccc2F)cc1
AC50 [1]: 35.5 µM [falling, single point] | AC50 [2]: 35.5 µM [falling, single point]

Cn1c(=O)c2c(ncn2CC(=O)Nc2ccccc2Sc2ccccc2)n(C)c1=O
AC50 [1]: 7.94 µM [rising, partial curve, poor fit]

Oc1c(C(Nc2cccc(C(F)(F)F)c2)c2ccncc2)ccc2cccnc12 (stereo not given)
AC50 [2]: 3.16 µM [rising, single point]

COc1cccc(-c2ccc3ncnc(N(C)Cc4ccco4)c3c2)c1
AC50 [2]: 10 µM [falling, partial curve, poor fit]

O=C(c1ccc(=O)[nH]n1)N1CCN(S(=O)(=O)c2ccc3ccccc3c2)CC1
AC50 [1]: 6.31 µM [rising, single point]

CC(C)(C)NC(=O)COc1ccc(-c2ccccc2)cc1
AC50 [2]: 35.5 µM [rising, single point]

CCCc1ccc(-c2cc(NC(=O)CSc3nnc(N)s3)n(-c3ccccc3)n2)cc1
AC50 [1]: 25.1 µM [rising, single point]

COc1ccc(N=C2CC(C)(C)CC(=O)/C2=C(/O)c2ccccc2)cc1
AC50 [1]: 2.82 µM [falling, full curve, poor fit]

COCC(=O)n1cc(C(=O)OC)c2ccccc21
AC50 [2]: 35.5 µM [falling, single point]

COc1cccc(C(=O)N/N=C/c2ccc(Oc3ccc([N+](=O)[O-])cn3)c(OC)c2)c1
AC50 [1]: 14.1 µM [rising, single point] | AC50 [2]: 22.4 µM [rising, single point]

COc1ccc(OC)c(C(=O)/C=C/c2ccccc2C(F)(F)F)c1
AC50 [1]: 12.6 µM [falling, partial curve] | AC50 [2]: 17.8 µM [falling, partial curve]

Cn1c(=O)cc(OCCCC(=O)N2CCN(Cc3ccc4c(c3)OCO4)CC2)c2ccccc21
AC50 [1]: 12.6 µM [rising, single point]

Clc1ccccc1-c1nccc(NCc2cccs2)n1
AC50 [1]: 0.224 µM [falling, partial curve, poor fit] | AC50 [2]: 0.355 µM [falling, full curve, poor fit]

CC1=NN(C(=O)c2ccccc2-n2cccc2)C(O)(C(F)(F)F)C1 (stereo not given)
AC50 [2]: 20 µM [rising, single point]

Cc1sc(NC(=O)/C=C/C(=O)O)c(C(N)=O)c1-c1ccc(C(C)(C)C)cc1
AC50 [2]: 31.6 µM [rising, single point]

CC(C)CNC(=O)c1cccc(NC(=O)c2ccc(Cl)c([N+](=O)[O-])c2)c1
AC50 [1]: 35.5 µM [rising, single point] | AC50 [2]: 35.5 µM [rising, single point]

O=C(COC(=O)CCc1ccc(S(=O)(=O)N2CCOCC2)cc1)Nc1ccc(Cl)cn1
AC50 [1]: 1.12 µM [rising, partial curve, poor fit]

COC(=O)c1ccccc1NC(=O)CSc1nnc(COc2cccc(OC)c2)n1C
AC50 [1]: 15.8 µM [rising, single point]

COc1ccc(-c2cn3cccnc3n2)cc1NC(=O)c1cc(C)cc(C)c1
AC50 [1]: 35.5 µM [falling, partial curve, poor fit]

CC(C)COc1ccc(CSCCNC(=S)Nc2ccccc2)cc1
AC50 [1]: 17.8 µM [falling, single point] | AC50 [2]: 11.2 µM [falling, partial curve]

COc1cc(C(C[N+](=O)[O-])c2c(C)[nH]c3ccccc23)ccc1O (stereo not given)
AC50 [1]: 10 µM [rising, partial curve, poor fit] | AC50 [2]: 11.2 µM [rising, partial curve, poor fit]

COc1ccc(OC)c(C2=NOC(C(=O)Nc3cc(C)nn3-c3ccccc3)C2)c1 (stereo not given)
AC50 [2]: 35.5 µM [rising, single point]

O=c1cc(O)c2sc3nc(C(F)(F)F)c4c(c3c2[nH]1)CCCCC4
AC50 [1]: 0.562 µM [rising, single point] | AC50 [2]: 0.501 µM [rising, single point]

COc1ccc(NS(=O)(=O)c2ccc(N3CCOCC3)c(NC(=O)c3ccc(F)cc3)c2)cc1
AC50 [2]: 11.2 µM [rising, partial curve]

COc1ccc(-c2csc(NC(=O)CSc3nnc(Nc4ccccc4C)s3)n2)cc1
AC50 [2]: 17.8 µM [falling, partial curve, poor fit]

CCCC(=O)NC(=S)Nc1cccc(Cl)c1N1CCCC1
AC50 [1]: 35.5 µM [rising, single point]

COC(=O)c1cc(NC(=O)Cn2nc(-c3ccc(C)c(C)c3)ccc2=O)cc(C(=O)OC)c1
AC50 [1]: 0.398 µM [falling, full curve]

CC1CCCN(c2ccc(C(=O)Nc3ccc4c(c3)OCO4)cc2[N+](=O)[O-])C1 (stereo not given)
AC50 [2]: 31.6 µM [rising, partial curve]

COC(=O)Cn1c(CN2CCN(c3ccc(F)cc3)CC2)nc2c1c(=O)n(C)c(=O)n2C
AC50 [2]: 17.8 µM [rising, single point]

COc1ccc(S(=O)(=O)n2[nH]c(=O)c(CCO)c2C)c([N+](=O)[O-])c1
AC50 [1]: 0.0631 µM [rising, full curve] | AC50 [2]: 0.00316 µM [rising, full curve, poor fit]

Cc1c(C(=O)OCc2nc3scc(-c4ccccc4)c3c(=O)[nH]2)cccc1[N+](=O)[O-]
AC50 [1]: 17.8 µM [rising, partial curve, poor fit] | AC50 [2]: 14.1 µM [rising, partial curve]

Cc1ccc(-c2nc(Cn3c(=O)cc(-c4ccccc4)c4c(C)nn(C)c43)c(C)o2)cc1
AC50 [1]: 0.0562 µM [falling, full curve, poor fit] | AC50 [2]: 0.0224 µM [falling, full curve, poor fit]

CCc1c(-c2ccccc2)nc2ccccc2c1C(=O)NCc1ccc(C)cc1
AC50 [2]: 6.31 µM [rising, partial curve]

CC1COC2C(O1)N(S(C)(=O)=O)CCN2S(C)(=O)=O (stereo not given)
AC50 [1]: 35.5 µM [rising, single point]

N#Cc1c(NC(=O)CSc2ncn[nH]2)sc2c1CCCC2
AC50 [2]: 10 µM [rising, partial curve]

CCC(=O)N1CCc2cc(S(=O)(=O)Nc3ccc4c(c3)OCCO4)ccc21
AC50 [2]: 8.91 µM [rising, partial curve]

Cn1cnc(S(=O)(=O)N2CCC(C(=O)N3CCN(c4ccccc4F)CC3)CC2)c1
AC50 [2]: 0.00631 µM [rising, full curve, poor fit]

COc1ccc(-c2nnc3c4ccccc4c(C)nn23)cc1
AC50 [1]: 15.8 µM [rising, single point] | AC50 [2]: 11.2 µM [rising, single point]

c1ccc2c(c1)nnn1c3ccccc3nc21
AC50 [1]: 35.5 µM [rising, single point] | AC50 [2]: 35.5 µM [rising, single point]

COCCNc1nc(-n2nc(C)cc2C)nc2sc3c(c12)CCCC3
AC50 [2]: 5.62 µM [rising, partial curve]

O=c1[nH]snc1N1CCOCC1
AC50 [1]: 2.24 µM [falling, full curve, poor fit] | AC50 [2]: 0.0891 µM [falling, full curve, poor fit]

CCOC(=O)c1c(NC(=O)C2COc3ccccc3O2)sc2c1CCN(Cc1ccccc1)C2 (stereo not given)
AC50 [2]: 31.6 µM [rising, single point]

S=C(NCc1ccccc1)N1CCN(Cc2ccc3c(c2)OCO3)CC1
AC50 [2]: 1.26 µM [falling, partial curve]

CCOC(=O)C1C(=O)C=C(c2ccc([N+](=O)[O-])cc2)CC1c1ccccc1 (stereo not given)
AC50 [2]: 12.6 µM [rising, single point]

N#CC1=C(N)C(C#N)(C#N)[C@H](c2cccnc2)[C@H]2CN(C(=O)OCc3ccccc3)CC=C12
AC50 [1]: 12.6 µM [rising, single point] | AC50 [2]: 35.5 µM [rising, single point]

CCCCOc1ccc(N(CC(=O)NC(C)(C)CC)C(=O)CCC(=O)Nc2ccccn2)cc1
AC50 [2]: 3.55 µM [falling, full curve, poor fit]

COc1ccc2cc(CN(CC3CCCO3)C(=S)Nc3ccccc3)c(=O)[nH]c2c1 (stereo not given)
AC50 [1]: 1.58 µM [falling, full curve] | AC50 [2]: 1.26 µM [falling, full curve, poor fit]

CC(=O)c1ccc(N2C(=O)N(CC(=O)c3ccc(C)cc3)c3ccccc3S2(=O)=O)cc1
AC50 [1]: 2.82 µM [rising, single point] | AC50 [2]: 3.98 µM [rising, full curve]

CS(=O)(=O)c1ccccc1C(=O)N1CCN(Cc2ccccc2)CC1
AC50 [2]: 0.0794 µM [rising, full curve]

C=CCn1c(SCC(=O)c2ccc(Cl)cc2)nnc1-c1ccc2c(c1)OCO2
AC50 [1]: 31.6 µM [rising, single point] | AC50 [2]: 31.6 µM [rising, single point]

COc1ccc(NC(=O)C(Cl)=C(Cl)Cl)cn1
AC50 [2]: 35.5 µM [falling, single point]
